According to publication PMC11011687:

B1: NF-κB-repressing factor (NKRF), endogenous in HEK293T (protein, UniProt O15226 1-690)
chain: MEKILQMAEGIDIGEMPSYDLVLSKPSKGQKRHLSTCDGQNPPKKQAGSKFHARPRFEPVHFVASSSKDERQEDPYGPQTKEVNEQTHFASMPRDIYQDYTQDSFSIQDGNSQYCDSSGFILTKDQPVTANMYFDSGNPAPSTTSQQANSQSTPEPSPSQTFPESVVAEKQYFIEKLTATIWKNLSNPEMTSGSDKINYTYMLTRCIQACKTNPEYIYAPLKEIPPADIPKNKKLLTDGYACEVRCQNIYLTTGYAGSKNGSRDRATELAVKLLQKRIEVRVVRRKFKHTFGEDLVVCQIGMSSYEFPPALKPPEDLVVLGKDASGQPIFNASAKHWTNFVITENANDAIGILNNSASFNKMSIEYKYEMMPNRTWRCRVFLQDHCLAEGYGTKKTSKHAAADEALKILQKTQPTYPSVKSSQCHTGSSPRGSGKKKDIKDLVVYENSSNPVCTLNDTAQFNRMTVEYVYERMTGLRWKCKVILESEVIAEAVGVKKTVKYEAAGEAVKTLKKTQPTVINNLKKGAVEDVISRNEIQGRSAEEAYKQQIKEDNIGNQLLRKMGWTGGGLGKSGEGIREPISVKEQHKREGLGLDVERVNKIAKRDIEQIIRNYARSESHTDLTFSRELTNDERKQIHQIAQKYGLKSKSHGVGHDRYLVVGRKRRKEDLLDQLKQEGQVGHYELVMPQAN
B2: NF-κB-repressing factor (NKRF), endogenous in 786-O (protein, UniProt O15226 1-690)
chain: B1 chain

Assays:
GFP-tagged NKRF (human) = target: T1, GFP-tagged NKRF (human) (UniProt O15226); experiment: co-IP; HEK293T cells co-transfected with GFP-NKRF (or NKRF ∆(204-308)) and Flag-tagged A1CF or its truncated or deleted forms; immunoprecipitation with anti-GFP antibodies (stated for Figure 2C), Western blot
T1 sequence: B1 chain

[1] = target: GFP-fused A1CF (Apobec-1 complementation factor) (human); experiment: co-IP; extracts of HEK293T cells expressing GFP-tagged A1CF or the GFP-tag alone; anti-GFP antibody on Protein A agarose beads; Western blot of eluates
[2] = target: GFP-tagged A1CF in 786-O stable cell line (human); experiment: co-IP; extract of A1CF-overexpressed 786-O stable cells, immunoprecipitation in the presence of DNase or RNase (50 μg/mL, during the incubation with beads); blots for NKRF, A1CF and β-Actin

| Molecule | binding (GFP-tagged NKRF (human)) | other results |
| --- | --- | --- |
| Flag-auxiliary domain of A1CF (294-586aa) (human) (domain or fragment) | no binding |  |
| Flag-A1CF ∆RRM1 (human) | binds weakly |  |
| Flag-A1CF ∆RRM3 (human) | binds |  |
| Flag-tagged A1CF (full length) (human) | binds |  |
| Flag-RRM domain of A1CF (1-293aa) (human) (domain or fragment) | binds |  |
| Flag-A1CF ∆RRM2 (human) | binds |  |
| B1 |  | binding [1]: binds |
| B2 |  | binding [2]: binds |

These are yes or no findings as the source states them, for the method shown. Binding seen in cells or lysates may run through a third protein. A result given as binding can be weak or reduced; the word gives no strength. For some assays here: Where a sequence is shown, tags or fusion partners need not be part of it.
